At least one structure is not confirmed: it was looked up by name or label, or the drawing left a doubt.
Assays:
[1] = test system: Klebsiella pneumoniae CG43 S3; test: Microbial viability assay (susceptibility to antibiotic); assay type: cell-based
[2] = molecular target: T1, PmrAC (C-terminal domain of PmrA) (Klebsiella pneumoniae, UniProt W9BNR5); test: Isothermal titration calorimetry (ITC); assay type: binding
T1 sequence (W9BNR5 121-223): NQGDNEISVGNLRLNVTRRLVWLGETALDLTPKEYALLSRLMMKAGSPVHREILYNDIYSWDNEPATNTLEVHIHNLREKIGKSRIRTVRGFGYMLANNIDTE
Experimental: Isothermal Titration Calorimetry (ITC)
The binding affinities of PmrAC with compound, E1, was estimated by ITC using a MicroCal iTC200 microcalorimeter. The sample of PmrAC was prepared in reaction buffer (20 mM sodium phosphate, 100 mM NaCl, pH6.0). Compounds were also prepared in reaction buffer (E1=0.4 mM) and titrated into PmrAC (45 μM) at 25° C. The background heat generated from compound to buffer titration was subtracted, and the corrected heat form the binding reaction of PmrAC to E1 was used to derive the association constant (Ka), the enthalpy of binding (ΔH), the change in Gibbs free energy (ΔG), and the entropy changes ([…]) at 298K. All the data were analyzed by using Origin ITC Analysis (MicroCal Software, Northampton, Mass., USA).
The binding affinity of E1 toward PmrAC (C-terminal domain of PmrA) was further assessed by Isothermal titration calorimetry (ITC) and Bio-layer interferometer (BLI) at the condition described previously (Lou et al., Nature communication 2015, 6, 8838.) (sodium phosphate buffer pH6.0). According to the ITC results, the interaction of E1 with PmrAC appeared to be an exothermic reaction, with a change in enthalpy (ΔH) of −21.4 kcal/mol, change in entropy (AS) of −45.6 […], and N value of 1.09 (FIG. 2, panel G).

[3] = sodium phosphate buffer pH6.0, 25° C.

## O=S(=O)(O)c1ccc(-c2ncc(-c3ccc(-c4cnc(-c5ccc(S(=O)(=O)O)cc5)o4)cc3)o2)cc1 [Compound E1]
[1]; E1 2.5 μM, Polymyxin B at distinct concentrations
  bactericidal ability of Polymyxin B against KP in the presence of the compound: enhanced
[1]; data not shown
  adjuvant activity to colistin (polymyxin E) on killing KP: observed
[2]; one set of the site-binding model
  Ka (association constant): 580000 M⁻¹
[2]; sodium phosphate buffer pH6.0
  N value: 1.09
[2]; [3]
  change in enthalpy (ΔH): -21.4 kcal/mol
  change in entropy (AS): −45.6 kcal/mol per K

Source: patent publication US10894037B2, “Inhibitors of bacterial two component signal transduction system and uses thereof” (priority 2017, dated 2021)
